Laboratory results as given in PMC8550791.
No constants are given. Whether binding was seen depends on the method and setting.

Target: catalytic domain of MINDY2 (residues 241-504) (UniProt Q8NBR6)
Assay: SEC-SAXS; Superdex 200 10/300 coupled to SAXS; 20 mM HEPES pH 7.5, 100 mM NaCl, 5 mM DTT; MINDY2 apo and non-covalent complexes of MINDY2^C266A with K48 chains; both purified

B1: catalytic domain of MINDY2 (residues 241-504) (domain or fragment, UniProt Q8NBR6 241-504)
chain: SVYHIKWIQWKEENTPIITQNENGPCPLLAILNVLLLAWKVKLPPMMEIITAEQLMEYLGDYMLDAKPKEISEIQRLNYEQNMSDAMAILHKLQTGLDVNVRFTGVRVFEYTPECIVFDLLDIPLYHGWLVDPQIDDIVKAVGNCSYNQLVEKIISCKQSDNSELVSEGFVAEQFLNNTATQLTYHGLCELTSTVQEGELCVFFRNNHFSTMTKYKGQLYLLVTDQGFLTEEKVVWESLHNVDGDGNFCDSEFHLRPPSDPETV
binding: no binding
